No constants are given. Whether binding was seen depends on the method and setting. Some entries that bind do so weakly or less than the wild type.
Assays:
[1] = molecular target: T1, DEK (yeast two-hybrid positive clone) (human) (UniProt P35659); test: yeast two-hybrid, full-length SPOP bait
T1 sequence (looked up): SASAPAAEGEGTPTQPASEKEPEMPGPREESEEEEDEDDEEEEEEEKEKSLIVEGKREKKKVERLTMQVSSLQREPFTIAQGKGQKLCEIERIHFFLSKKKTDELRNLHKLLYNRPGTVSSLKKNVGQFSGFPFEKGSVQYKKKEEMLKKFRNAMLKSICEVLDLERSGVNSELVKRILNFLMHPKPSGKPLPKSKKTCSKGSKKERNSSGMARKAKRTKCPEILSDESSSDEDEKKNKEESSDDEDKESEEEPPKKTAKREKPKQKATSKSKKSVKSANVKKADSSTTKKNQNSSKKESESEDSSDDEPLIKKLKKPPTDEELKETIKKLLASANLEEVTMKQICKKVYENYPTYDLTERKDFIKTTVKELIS

Protein sequences, listed by entry. Tags and fused reporters are not part of them. Lines headed by an entry give the natural chain unless they say otherwise; changes in a name come on top. Residues count along the entry.
UniProt P25440: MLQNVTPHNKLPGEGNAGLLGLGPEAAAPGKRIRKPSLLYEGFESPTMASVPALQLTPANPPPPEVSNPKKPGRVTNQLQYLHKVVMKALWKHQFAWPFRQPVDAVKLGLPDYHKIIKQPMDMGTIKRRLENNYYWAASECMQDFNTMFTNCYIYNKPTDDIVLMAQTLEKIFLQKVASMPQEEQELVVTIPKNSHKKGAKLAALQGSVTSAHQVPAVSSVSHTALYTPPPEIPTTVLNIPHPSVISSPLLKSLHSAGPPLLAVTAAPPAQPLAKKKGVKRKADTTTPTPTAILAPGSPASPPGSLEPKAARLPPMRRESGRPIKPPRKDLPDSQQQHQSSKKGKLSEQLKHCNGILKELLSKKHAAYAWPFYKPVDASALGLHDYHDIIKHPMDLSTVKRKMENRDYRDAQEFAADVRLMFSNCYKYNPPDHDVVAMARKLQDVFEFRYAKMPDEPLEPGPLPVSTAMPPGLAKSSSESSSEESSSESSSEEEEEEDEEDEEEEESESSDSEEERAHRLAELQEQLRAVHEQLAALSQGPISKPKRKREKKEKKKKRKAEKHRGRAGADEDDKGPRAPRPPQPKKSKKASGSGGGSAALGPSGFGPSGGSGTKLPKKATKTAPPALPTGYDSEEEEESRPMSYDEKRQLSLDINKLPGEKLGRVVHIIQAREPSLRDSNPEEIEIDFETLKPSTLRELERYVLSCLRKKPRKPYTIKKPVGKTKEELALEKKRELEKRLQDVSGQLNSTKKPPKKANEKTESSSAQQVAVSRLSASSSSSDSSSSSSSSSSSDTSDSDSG
UniProt Q9Y6Q9, residues 2-1424: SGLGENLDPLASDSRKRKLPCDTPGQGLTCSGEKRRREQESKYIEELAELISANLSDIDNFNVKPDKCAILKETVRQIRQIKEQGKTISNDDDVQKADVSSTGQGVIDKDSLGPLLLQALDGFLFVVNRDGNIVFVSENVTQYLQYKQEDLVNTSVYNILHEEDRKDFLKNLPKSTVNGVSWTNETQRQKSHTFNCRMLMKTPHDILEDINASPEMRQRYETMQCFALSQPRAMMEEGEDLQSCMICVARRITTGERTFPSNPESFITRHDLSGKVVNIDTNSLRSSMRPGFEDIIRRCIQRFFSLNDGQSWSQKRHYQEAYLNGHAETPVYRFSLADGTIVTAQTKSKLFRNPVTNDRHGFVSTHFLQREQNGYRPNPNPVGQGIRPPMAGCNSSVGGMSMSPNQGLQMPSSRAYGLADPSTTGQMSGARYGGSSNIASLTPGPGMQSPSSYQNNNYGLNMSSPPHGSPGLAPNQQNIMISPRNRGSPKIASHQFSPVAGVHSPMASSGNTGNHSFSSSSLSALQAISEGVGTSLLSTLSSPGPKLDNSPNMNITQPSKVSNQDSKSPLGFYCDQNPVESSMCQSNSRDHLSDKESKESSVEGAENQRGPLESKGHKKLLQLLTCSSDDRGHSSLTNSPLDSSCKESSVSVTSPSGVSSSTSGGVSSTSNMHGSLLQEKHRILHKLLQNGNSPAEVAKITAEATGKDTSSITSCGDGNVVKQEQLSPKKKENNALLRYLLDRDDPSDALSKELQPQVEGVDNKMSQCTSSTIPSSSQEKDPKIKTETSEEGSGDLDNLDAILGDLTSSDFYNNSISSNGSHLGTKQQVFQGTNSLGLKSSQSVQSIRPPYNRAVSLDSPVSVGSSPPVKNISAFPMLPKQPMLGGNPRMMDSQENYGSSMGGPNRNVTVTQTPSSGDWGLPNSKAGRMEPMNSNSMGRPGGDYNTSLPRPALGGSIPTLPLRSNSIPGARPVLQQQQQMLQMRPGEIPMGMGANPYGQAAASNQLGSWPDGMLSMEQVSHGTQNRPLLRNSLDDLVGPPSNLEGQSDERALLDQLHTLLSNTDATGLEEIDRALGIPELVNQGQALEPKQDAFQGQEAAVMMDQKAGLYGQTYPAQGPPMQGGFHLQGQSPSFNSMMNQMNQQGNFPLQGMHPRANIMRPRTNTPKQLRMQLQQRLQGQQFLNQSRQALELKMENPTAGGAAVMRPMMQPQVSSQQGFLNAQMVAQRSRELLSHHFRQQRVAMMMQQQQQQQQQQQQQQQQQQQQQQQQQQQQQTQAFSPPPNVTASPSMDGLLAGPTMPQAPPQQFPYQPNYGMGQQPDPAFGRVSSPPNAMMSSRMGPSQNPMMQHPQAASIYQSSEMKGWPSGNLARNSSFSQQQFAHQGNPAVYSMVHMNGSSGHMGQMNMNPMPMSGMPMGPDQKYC
UniProt P04386: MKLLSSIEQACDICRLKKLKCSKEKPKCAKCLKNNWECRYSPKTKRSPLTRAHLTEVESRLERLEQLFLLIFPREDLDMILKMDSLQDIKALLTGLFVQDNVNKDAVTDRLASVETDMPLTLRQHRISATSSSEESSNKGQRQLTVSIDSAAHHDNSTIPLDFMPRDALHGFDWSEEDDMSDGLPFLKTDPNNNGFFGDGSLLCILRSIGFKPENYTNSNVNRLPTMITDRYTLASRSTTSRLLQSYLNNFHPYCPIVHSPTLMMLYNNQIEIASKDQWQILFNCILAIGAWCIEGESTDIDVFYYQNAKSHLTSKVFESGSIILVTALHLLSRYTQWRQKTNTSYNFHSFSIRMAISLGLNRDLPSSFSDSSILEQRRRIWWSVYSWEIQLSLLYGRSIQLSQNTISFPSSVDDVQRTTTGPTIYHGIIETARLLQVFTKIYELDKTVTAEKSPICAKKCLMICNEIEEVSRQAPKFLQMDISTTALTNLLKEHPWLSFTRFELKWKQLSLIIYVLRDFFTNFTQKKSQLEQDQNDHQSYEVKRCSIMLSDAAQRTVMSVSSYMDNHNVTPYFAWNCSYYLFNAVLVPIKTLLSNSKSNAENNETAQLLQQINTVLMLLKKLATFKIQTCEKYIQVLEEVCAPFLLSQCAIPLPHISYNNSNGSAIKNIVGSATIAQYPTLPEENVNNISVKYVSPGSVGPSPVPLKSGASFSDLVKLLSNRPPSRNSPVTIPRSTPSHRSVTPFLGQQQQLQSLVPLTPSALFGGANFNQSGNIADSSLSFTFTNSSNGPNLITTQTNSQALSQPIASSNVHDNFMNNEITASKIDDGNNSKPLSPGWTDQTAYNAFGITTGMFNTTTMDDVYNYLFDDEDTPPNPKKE

[2] = molecular target: BRD2 (yeast two-hybrid positive clone) (human) (UniProt P25440); test: yeast two-hybrid, full-length SPOP bait
[3] = molecular target: NCOA3(SRC-3) (yeast two-hybrid positive clone) (human) (UniProt Q9Y6Q9); test: yeast two-hybrid, full-length SPOP bait
[4] = molecular target: T1, DEK (yeast two-hybrid positive clone) (human); test: yeast two-hybrid, full-length SPOP bait, human fetal brain cDNA library
[5] = molecular target: BRD2 (yeast two-hybrid positive clone) (human) (UniProt P25440); test: as above
[6] = molecular target: NCOA3(SRC-3) (yeast two-hybrid positive clone) (human) (UniProt Q9Y6Q9); test: as above

binding [1]: binds | binding [2]: binds | binding [3]: binds | binding [4]: binds | binding [5]: binds | binding [6]: binds
Substance: full-length SPOP cloned in-frame with the GAL4 DNA binding domain in vector PGBKT7 (from UniProt P04386 1-147; O43791 1-374)
